Experimental data reported in patent US8901313B2, “6,5-heterocyclic propargylic alcohol compounds and uses therefor” (Genentech, Inc., priority 2011, dated 2014).
Structures were worked out from names or drawings and are uncertain.

Protein sequences, listed by entry. Tags and fused reporters are not part of them.
UniProt Q99558, whole entry: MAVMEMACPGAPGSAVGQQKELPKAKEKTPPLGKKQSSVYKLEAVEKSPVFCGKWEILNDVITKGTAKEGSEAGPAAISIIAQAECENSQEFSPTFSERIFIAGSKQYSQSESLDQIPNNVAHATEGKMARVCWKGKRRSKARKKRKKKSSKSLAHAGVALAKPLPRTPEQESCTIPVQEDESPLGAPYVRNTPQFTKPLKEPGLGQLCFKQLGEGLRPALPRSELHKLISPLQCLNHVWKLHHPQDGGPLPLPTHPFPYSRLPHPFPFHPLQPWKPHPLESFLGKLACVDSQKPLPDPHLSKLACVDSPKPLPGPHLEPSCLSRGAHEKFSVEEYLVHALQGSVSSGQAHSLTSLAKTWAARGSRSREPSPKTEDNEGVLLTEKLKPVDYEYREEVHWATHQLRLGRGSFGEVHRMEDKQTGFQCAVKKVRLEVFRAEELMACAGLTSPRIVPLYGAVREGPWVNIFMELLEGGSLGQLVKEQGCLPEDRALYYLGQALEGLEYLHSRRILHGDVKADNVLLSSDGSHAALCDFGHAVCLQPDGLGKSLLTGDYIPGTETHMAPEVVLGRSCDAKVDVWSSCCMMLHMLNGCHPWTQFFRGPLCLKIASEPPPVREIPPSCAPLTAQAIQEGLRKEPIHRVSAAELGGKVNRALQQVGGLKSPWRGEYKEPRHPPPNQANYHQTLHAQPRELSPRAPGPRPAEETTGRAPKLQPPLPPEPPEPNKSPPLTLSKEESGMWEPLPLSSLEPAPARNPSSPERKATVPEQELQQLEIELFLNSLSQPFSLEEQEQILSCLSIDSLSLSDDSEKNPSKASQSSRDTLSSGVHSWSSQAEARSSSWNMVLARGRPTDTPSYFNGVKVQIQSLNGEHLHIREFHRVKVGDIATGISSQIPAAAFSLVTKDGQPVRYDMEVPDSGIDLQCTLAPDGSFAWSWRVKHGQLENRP

Experiments:
[1] = molecular target: nuclear factor-kappa B (NF-kB)-inducing kinase (NIK) (Homo sapiens, UniProt Q99558); test: NIK Enzyme Inhibition Assay (Transcreener ADP assay); details: read-out: NIK ADP (Ki); comparative data, Tables 16A-16D
[2] = system: NF-kB signaling through NIK in human embryonic kidney 293 cells; test: 293-NIK NF-kB-Luciferase reporter assay; details: read-out: 293-NIK NF-kB-Luciferase (IC50); comparative data, Tables 16A-16D
Excerpt: (§1) (1) The first assay was used to profile whether a test compound can inhibit the NF-kB signally through NIK inhibition without affecting cell viability. In this assay, human embryonic kidney 293 cells was stably transfected with a tetracycline-inducible NIK DNA construct containing a cytomegalovirus promoter plus two reporter DNA constructs. One reporter encoded firefly luciferase under the control of three repeats of an NF-kB response element from the ELAM-1 gene and reflects the level of NIK activity in the cells, whereas the other reporter constitutively expressed Renilla luciferase under the control of the herpes simplex virus thymidine kinase promoter and served as a general measure of cell viability. Cells were incubated with different concentrations of compounds (0.2% DMSO final) in medium containing 1 ug/mL doxycycline and 10% tet-system approved fetal bovine serum (Clontech) for 24 hours, after which the reporters' signals were detected using the Dual Glo luciferase detection system (Promega) according to the vendor's protocol. […]

[3] = system: human embryonic kidney 293 cells; test: 293-NIK TK Renilla Luciferase reporter (general measure of cell viability); details: read-out: 293-NIK TK Renilla Luciferase (IC50); comparative data, Tables 16A-16D
Excerpt: as §1

[4] = system: p52 (NF-kB2) nuclear translocation in HeLa cells; test: NIK p52 Translocation Assay (non-classical NF-kB signaling); details: read-out: NIK p52 Translocation (IC50); comparative data, Tables 16A-16D
Description: (§2) (2) A second set of cell assay was used to define the selectivity of NIK inhibitors toward inhibition of classical vs. non-classical NF-kB signaling and rely on quantification of the nuclear translocation of p52 (NF-kB2) and REL-A (p65) using high content cellular imaging. For the p52 (non-classical NF-kB signaling) nuclear translocation assay, HeLa cells were treated with different concentrations of compounds (0.2% DMSO final) in medium containing 10% fetal bovine serum and then stimulated with 100 ng/mL of an anti-lymphotoxin beta receptor antibody (R&D Systems) for 5 hours. In the REL-A nuclear translocation assay, HeLa cells were incubated with compounds (0.2% DMSO final) for 4.5 hours in medium containing 10% fetal bovine serum before stimulating them with 10 ng/mL tumor necrosis factor (TNF)-α (R&D Systems) for 30 minutes. Cells were fixed with 4% paraformaldehyde, permeabilized by adding 0.1% Triton X-100 in phosphate buffered saline, and then incubated with either 2 ug/mL anti-p52 antibody (Millipore) or 400 ng/mL anti-REL-A (p65) antibody (Santa Cruz Biotechnology). […] Imaging was carried out using an Opera reader (Perkin Elmer) and data are analyzed with the aid of Acapella software (Perkin Elmer). The p52 or REL-A translocation into the nucleus was quantified by the ratio of the nuclear to cytoplasmic signal intensity. […]

[5] = system: REL-A (p65) nuclear translocation in HeLa cells; test: NIK RelA Translocation Assay (classical NF-kB signaling); details: read-out: NIK RelA Translocation (IC50); comparative data, Tables 16A-16D
Description: as §2

CC(O)(C#Cc1ccc2[nH]c(=O)n(-c3ccnc(N)n3)c2c1)c1nccs1 (centres unmarked) [Example T1-21, 1-(2-aminopyrimidin-4-yl)-6-(3-hydroxy-3-(thiazol-2-yl)but-1-ynyl)-1H-benzo[d] imidazol-2(3H)-one]
Ki [1]: 0.3 nM | IC50 [2]: 590 nM | IC50 [3]: 5200 nM | IC50 [4]: 514 nM | IC50 [5]: > 20000 nM
